Measurements as given in paper PMC4595607, “mRNA export through an additional cap-binding complex consisting of NCBP1 and NCBP3” (Nature Communications, 2015).
Results are given in words; binding and its absence hold for the method and conditions named. Binding seen in cells or lysates may run through a third protein. Here binding means that the protein was enriched with, or labelled near, the bait; the list need not be complete. For some of these results: A no says only that the protein was not detected with the bait. Where a sequence is shown, tags or fusion partners need not be part of it. Blank lines part the entries; values can stand above or below the molecule they belong to.

Amino acid sequences for entries named in this document (tags omitted).
UniProt Q9H814: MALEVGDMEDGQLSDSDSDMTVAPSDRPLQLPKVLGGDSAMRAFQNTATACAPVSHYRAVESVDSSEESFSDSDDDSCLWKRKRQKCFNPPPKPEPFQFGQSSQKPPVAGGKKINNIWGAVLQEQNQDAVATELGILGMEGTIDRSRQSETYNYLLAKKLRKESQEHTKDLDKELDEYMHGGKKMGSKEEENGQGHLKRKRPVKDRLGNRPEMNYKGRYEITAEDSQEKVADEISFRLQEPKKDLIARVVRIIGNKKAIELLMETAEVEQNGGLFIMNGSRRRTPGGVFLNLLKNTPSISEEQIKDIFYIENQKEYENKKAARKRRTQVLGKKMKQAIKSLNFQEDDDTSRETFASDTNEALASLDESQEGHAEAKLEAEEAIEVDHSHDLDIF
UniProt Q96A72: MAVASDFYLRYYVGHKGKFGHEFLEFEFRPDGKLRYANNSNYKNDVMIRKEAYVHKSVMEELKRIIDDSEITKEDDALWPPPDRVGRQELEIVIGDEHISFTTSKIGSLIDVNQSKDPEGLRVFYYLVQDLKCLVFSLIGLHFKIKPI
UniProt Q09161: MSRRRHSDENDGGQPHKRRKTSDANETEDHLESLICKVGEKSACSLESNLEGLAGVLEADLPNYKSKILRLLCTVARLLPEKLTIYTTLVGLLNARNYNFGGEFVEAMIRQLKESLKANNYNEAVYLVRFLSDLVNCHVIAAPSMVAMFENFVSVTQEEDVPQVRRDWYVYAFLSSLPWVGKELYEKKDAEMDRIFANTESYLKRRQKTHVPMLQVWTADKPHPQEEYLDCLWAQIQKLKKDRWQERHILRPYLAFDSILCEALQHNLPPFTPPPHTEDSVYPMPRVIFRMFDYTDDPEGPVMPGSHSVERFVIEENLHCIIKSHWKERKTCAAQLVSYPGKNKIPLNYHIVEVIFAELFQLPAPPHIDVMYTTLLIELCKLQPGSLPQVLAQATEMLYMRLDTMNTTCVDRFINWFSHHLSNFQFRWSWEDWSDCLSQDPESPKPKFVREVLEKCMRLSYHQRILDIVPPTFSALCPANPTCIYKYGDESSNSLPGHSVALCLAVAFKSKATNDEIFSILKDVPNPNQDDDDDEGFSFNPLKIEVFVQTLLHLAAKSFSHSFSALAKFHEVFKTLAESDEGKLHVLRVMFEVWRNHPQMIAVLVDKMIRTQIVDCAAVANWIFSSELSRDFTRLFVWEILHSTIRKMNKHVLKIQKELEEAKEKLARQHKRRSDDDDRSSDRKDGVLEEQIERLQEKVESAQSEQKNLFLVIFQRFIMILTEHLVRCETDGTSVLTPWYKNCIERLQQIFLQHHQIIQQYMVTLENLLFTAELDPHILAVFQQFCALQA
UniProt Q13838: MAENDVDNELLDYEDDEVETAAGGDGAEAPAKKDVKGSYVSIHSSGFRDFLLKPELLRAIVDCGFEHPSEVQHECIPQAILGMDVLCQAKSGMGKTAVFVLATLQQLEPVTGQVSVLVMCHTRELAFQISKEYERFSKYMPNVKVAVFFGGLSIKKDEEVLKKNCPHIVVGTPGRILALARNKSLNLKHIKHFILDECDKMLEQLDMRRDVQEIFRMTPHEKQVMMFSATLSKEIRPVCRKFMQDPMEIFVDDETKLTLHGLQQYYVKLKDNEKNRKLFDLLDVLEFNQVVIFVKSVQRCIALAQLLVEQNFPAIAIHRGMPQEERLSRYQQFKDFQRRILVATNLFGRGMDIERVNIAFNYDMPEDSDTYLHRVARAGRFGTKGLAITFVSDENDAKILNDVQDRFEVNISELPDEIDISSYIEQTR

Assays:
[1] = target: T1, GFP-tagged human C17orf85/NCBP3 (human) (UniProt Q53F19); experiment: affinity purification with mass spectrometry; GFP-Trap beads; lysates of HeLa cells stably expressing GFP-tagged NCBP3, NCBP2 or RAB5C (control); lysate sonicated and treated with Benzonase; TAP buffer; label-free quantification against the control
T1 sequence: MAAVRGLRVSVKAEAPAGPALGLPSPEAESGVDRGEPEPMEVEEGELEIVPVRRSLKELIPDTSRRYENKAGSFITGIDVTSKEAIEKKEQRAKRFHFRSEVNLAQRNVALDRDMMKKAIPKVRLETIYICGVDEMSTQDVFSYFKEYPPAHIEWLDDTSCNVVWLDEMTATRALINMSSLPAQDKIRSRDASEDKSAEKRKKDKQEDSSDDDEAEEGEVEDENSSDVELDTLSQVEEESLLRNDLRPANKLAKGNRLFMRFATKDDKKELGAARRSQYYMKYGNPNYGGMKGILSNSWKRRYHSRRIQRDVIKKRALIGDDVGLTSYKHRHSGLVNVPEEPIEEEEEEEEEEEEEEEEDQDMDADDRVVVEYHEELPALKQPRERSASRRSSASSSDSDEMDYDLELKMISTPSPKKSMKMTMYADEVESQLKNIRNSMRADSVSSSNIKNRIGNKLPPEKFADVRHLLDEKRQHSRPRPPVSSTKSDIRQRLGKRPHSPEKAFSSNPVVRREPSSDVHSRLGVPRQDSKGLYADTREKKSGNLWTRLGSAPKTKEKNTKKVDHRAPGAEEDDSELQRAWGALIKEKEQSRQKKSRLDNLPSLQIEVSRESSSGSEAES

[2] = target: T2, GFP-tagged human NCBP2 (human) (UniProt P52298); experiment: as above
T2 sequence: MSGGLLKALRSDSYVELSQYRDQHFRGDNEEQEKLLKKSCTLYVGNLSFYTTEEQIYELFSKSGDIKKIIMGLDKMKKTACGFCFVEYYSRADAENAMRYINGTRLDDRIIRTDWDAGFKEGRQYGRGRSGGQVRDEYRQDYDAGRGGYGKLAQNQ

binding [1]: no binding
binding [2]: binds
Molecule: phosphorylated adaptor for RNA export (PHAX) (from UniProt Q9H814 1-394)

binding [1]: binds
B1: THOC7 (protein, UniProt Q6I9Y2 1-204)
chain: MGAVTDDEVIRKRLLIDGDGAGDDRRINLLVKSFIKWCNSGSQEEGYSQYQRMLSTLSQCEFSMGKTLLVYDMNLREMENYEKIYKEIECSIAGAHEKIAECKKQILQAKRIRKNRQEYDALAKVIQHHPDRHETLKELEALGKELEHLSHIKESVEDKLELRRKQFHVLLSTIHELQQTLENDEKLSEVEEAQEASMETDPKP

binding [1]: binds
B4: THOC3 (protein, UniProt Q96J01 1-351)
chain: MAVPAAAMGPSALGQSGPGSMAPWCSVSSGPSRYVLGMQELFRGHSKTREFLAHSAKVHSVAWSCDGRRLASGSFDKTASVFLLEKDRLVKENNYRGHGDSVDQLCWHPSNPDLFVTASGDKTIRIWDVRTTKCIATVNTKGENINICWSPDGQTIAVGNKDDVVTFIDAKTHRSKAEEQFKFEVNEISWNNDNNMFFLTNGNGCINILSYPELKPVQSINAHPSNCICIKFDPMGKYFATGSADALVSLWDVDELVCVRCFSRLDWPVRTLSFSHDGKMLASASEDHFIDIAEVETGDKLWEVQCESPTFTVAWHPKRPLLAFACDDKDGKYDSSREAGTVKLFGLPNDS

binding [1]: binds
B6: THOC6 (protein, UniProt Q86W42 1-341)
chain: MERAVPLAVPLGQTEVFQALQRLHMTIFSQSVSPCGKFLAAGNNYGQIAIFSLSSALSSEAKEESKKPVVTFQAHDGPVYSMVSTDRHLLSAGDGEVKAWLWAEMLKKGCKELWRRQPPYRTSLEVPEINALLLVPKENSLILAGGDCQLHTMDLETGTFTRVLRGHTDYIHCLALRERSPEVLSGGEDGAVRLWDLRTAKEVQTIEVYKHEECSRPHNGRWIGCLATDSDWMVCGGGPALTLWHLRSSTPTTIFPIRAPQKHVTFYQDLILSAGQGRCVNQWQLSGELKAQVPGSSPGLLSLSLNQQPAAPECKVLTAAGNSCRVDVFTNLGYRAFSLSF

binding [1]: binds
B7: THOC5 (protein, UniProt Q13769 1-683)
chain: MSSESSKKRKPKVIRSDGAPAEGKRNRSDTEQEGKYYSEEAEVDLRDPGRDYELYKYTCQELQRLMAEIQDLKSRGGKDVAIEIEERRIQSCVHFMTLKKLNRLAHIRLKKGRDQTHEAKQKVDAYHLQLQNLLYEVMHLQKEITKCLEFKSKHEEIDLVSLEEFYKEAPPDISKAEVTMGDPHQQTLARLDWELEQRKRLAEKYRECLSNKEKILKEIEVKKEYLSSLQPRLNSIMQASLPVQEYLFMPFDQAHKQYETARHLPPPLYVLFVQATAYGQACDKTLSVAIEGSVDEAKALFKPPEDSQDDESDSDAEEEQTTKRRRPTLGVQLDDKRKEMLKRHPLSVMLDLKCKDDSVLHLTFYYLMNLNIMTVKAKVTTAMELITPISAGDLLSPDSVLSCLYPGDHGKKTPNPANQYQFDKVGILTLSDYVLELGHPYLWVQKLGGLHFPKEQPQQTVIADHSLSASHMETTMKLLKTRVQSRLALHKQFASLEHGIVPVTSDCQYLFPAKVVSRLVKWVTVAHEDYMELHFTKDIVDAGLAGDTNLYYMALIERGTAKLQAAVVLNPGYSSIPPVFQLCLNWKGEKTNSNDDNIRAMEGEVNVCYKELCGPWPSHQLLTNQLQRLCVLLDVYLETESHDDSVEGPKEFPQEKMCLRLFRGPSRMKPFKYNHPQGFFSHR

More lines, now with the values behind:

Molecule: MAGOHB (from UniProt Q96A72 1-148)
binding [1]: binds

Molecule: NCBP1 (from UniProt Q09161 1-790)
binding [1]: binds
binding [2]: binds

Molecule: DDX39B (from UniProt Q13838 1-428)
binding [1]: binds

B2: ACIN1 (protein, UniProt Q9UKV3 1-1341)
chain: MWRRKHPRTSGGTRGVLSGNRGVEYGSGRGHLGTFEGRWRKLPKMPEAVGTDPSTSRKMAELEEVTLDGKPLQALRVTDLKAALEQRGLAKSGQKSALVKRLKGALMLENLQKHSTPHAAFQPNSQIGEEMSQNSFIKQYLEKQQELLRQRLEREAREAAELEEASAESEDEMIHPEGVASLLPPDFQSSLERPELELSRHSPRKSSSISEEKGDSDDEKPRKGERRSSRVRQARAAKLSEGSQPAEEEEDQETPSRNLRVRADRNLKTEEEEEEEEEEEEDDEEEEGDDEGQKSREAPILKEFKEEGEEIPRVKPEEMMDERPKTRSQEQEVLERGGRFTRSQEEARKSHLARQQQEKEMKTTSPLEEEEREIKSSQGLKEKSKSPSPPRLTEDRKKASLVALPEQTASEEETPPPLLTKEASSPPPHPQLHSEEEIEPMEGPAPAVLIQLSPPNTDADTRELLVSQHTVQLVGGLSPLSSPSDTKAESPAEKVPEESVLPLVQKSTLADYSAQKDLEPESDRSAQPLPLKIEELALAKGITEECLKQPSLEQKEGRRASHTLLPSHRLKQSADSSSSRSSSSSSSSSRSRSRSPDSSGSRSHSPLRSKQRDVAQARTHANPRGRPKMGSRSTSESRSRSRSRSRSASSNSRKSLSPGVSRDSSTSYTETKDPSSGQEVATPPVPQLQVCEPKERTSTSSSSVQARRLSQPESAEKHVTQRLQPERGSPKKCEAEEAEPPAATQPQTSETQTSHLPESERIHHTVEEKEEVTMDTSENRPENDVPEPPMPIADQVSNDDRPEGSVEDEEKKESSLPKSFKRKISVVSATKGVPAGNSDTEGGQPGRKRRWGASTATTQKKPSISITTESLKSLIPDIKPLAGQEAVVDLHADDSRISEDETERNGDDGTHDKGLKICRTVTQVVPAEGQENGQREEEEEEKEPEAEPPVPPQVSVEVALPPPAEHEVKKVTLGDTLTRRSISQQKSGVSITIDDPVRTAQVPSPPRGKISNIVHISNLVRPFTLGQLKELLGRTGTLVEEAFWIDKIKSHCFVTYSTVEEAVATRTALHGVKWPQSNPKFLCADYAEQDELDYHRGLLVDRPSETKTEEQGIPRPLHPPPPPPVQPPQHPRAEQREQERAVREQWAEREREMERRERTRSEREWDRDKVREGPRSRSRSRDRRRKERAKSKEKKSEKKEKAQEEPPAKLLDDLFRKTKAAPCIYWLPLTDSQIVQKEAERAERAKEREKRRKEQEEEEQKEREKEAERERNRQLEREKRREHSRERDRERERERERDRGDRDRDRERDRERGRERDRRDTKRHSRSRSRSTPVRDRGGRR
binding [1]: binds

B3: SAP18 (protein, UniProt O00422 1-153)
chain: MAVESRVTQEEIKKEPEKPIDREKTCPLLLRVFTTNNGRHHRMDEFSRGNVPSSELQIYTWMDATLKELTSLVKEVYPEARKKGTHFNFAIVFTDVKRPGYRVKEIGSTMSGRKGTDDSMTLQSQKFQIGDYLDIAITPPNRAPPPSGRMRPY
binding [1]: binds

B5: THOC1 (protein, UniProt Q96FV9 1-657)
chain: MSPTPPLFSLPEARTRFTKSTREALNNKNIKPLLSTFSQVPGSENEKKCTLDQAFRGILEEEIINHSSCENVLAIISLAIGGVTEGICTASTPFVLLGDVLDCLPLDQCDTIFTFVEKNVATWKSNTFYSAGKNYLLRMCNDLLRRLSKSQNTVFCGRIQLFLARLFPLSEKSGLNLQSQFNLENVTVFNTNEQESTLGQKHTEDREEGMDVEEGEMGDEEAPTTCSIPIDYNLYRKFWSLQDYFRNPVQCYEKISWKTFLKYSEEVLAVFKSYKLDDTQASRKKMEELKTGGEHVYFAKFLTSEKLMDLQLSDSNFRRHILLQYLILFQYLKGQVKFKSSNYVLTDEQSLWIEDTTKSVYQLLSENPPDGERFSKMVEHILNTEENWNSWKNEGCPSFVKERTSDTKPTRIIRKRTAPEDFLGKGPTKKILMGNEELTRLWNLCPDNMEACKSETREHMPTLEEFFEEAIEQADPENMVENEYKAVNNSNYGWRALRLLARRSPHFFQPTNQQFKSLPEYLENMVIKLAKELPPPSEEIKTGEDEDEEDNDALLKENESPDVRRDKPVTGEQIEVFANKLGEQWKILAPYLEMKDSEIRQIECDSEDMKMRAKQLLVAWQDQEGVHATPENLINALNKSGLSDLAESLTNDNETNS
binding [1]: binds
